According to the supplement of paper PMC12067093, “Discovery and optimisation of a covalent ligand for TRIM25 and its application to targeted protein ubiquitination” (Chemical Science, 2025):
The other results are listed elsewhere or left out.

Sequences of proteins named here, by UniProt entry; tags and fusion partners are left off. A change or cut given only in a name is not applied to a line headed by its entry.
UniProt P36222, whole entry, looked up: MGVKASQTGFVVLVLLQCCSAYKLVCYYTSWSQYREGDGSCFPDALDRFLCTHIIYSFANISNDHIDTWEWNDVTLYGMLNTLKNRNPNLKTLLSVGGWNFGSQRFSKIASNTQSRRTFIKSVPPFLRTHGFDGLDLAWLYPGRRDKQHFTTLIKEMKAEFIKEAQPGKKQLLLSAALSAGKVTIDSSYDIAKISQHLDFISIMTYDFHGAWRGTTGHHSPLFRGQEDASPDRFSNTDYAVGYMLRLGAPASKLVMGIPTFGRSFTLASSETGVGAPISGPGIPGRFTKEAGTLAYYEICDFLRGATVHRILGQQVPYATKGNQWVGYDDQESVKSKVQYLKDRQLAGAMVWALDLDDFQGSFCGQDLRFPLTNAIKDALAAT
UniProt O76071: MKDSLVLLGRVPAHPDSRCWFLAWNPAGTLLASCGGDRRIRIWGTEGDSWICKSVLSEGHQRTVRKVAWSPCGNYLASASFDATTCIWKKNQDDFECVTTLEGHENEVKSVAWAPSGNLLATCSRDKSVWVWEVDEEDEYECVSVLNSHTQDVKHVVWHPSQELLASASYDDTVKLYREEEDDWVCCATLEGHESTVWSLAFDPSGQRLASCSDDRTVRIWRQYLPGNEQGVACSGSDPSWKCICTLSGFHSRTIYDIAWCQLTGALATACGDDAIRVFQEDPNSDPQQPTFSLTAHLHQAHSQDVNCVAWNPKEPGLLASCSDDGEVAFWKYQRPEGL
UniProt Q9Y696: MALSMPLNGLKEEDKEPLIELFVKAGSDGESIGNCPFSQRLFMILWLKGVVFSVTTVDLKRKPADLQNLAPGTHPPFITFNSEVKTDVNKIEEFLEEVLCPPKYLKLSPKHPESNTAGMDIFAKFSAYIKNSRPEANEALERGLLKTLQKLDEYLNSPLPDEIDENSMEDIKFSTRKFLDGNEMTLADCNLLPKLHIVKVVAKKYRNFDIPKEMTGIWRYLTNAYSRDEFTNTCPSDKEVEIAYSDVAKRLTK
UniProt Q00610: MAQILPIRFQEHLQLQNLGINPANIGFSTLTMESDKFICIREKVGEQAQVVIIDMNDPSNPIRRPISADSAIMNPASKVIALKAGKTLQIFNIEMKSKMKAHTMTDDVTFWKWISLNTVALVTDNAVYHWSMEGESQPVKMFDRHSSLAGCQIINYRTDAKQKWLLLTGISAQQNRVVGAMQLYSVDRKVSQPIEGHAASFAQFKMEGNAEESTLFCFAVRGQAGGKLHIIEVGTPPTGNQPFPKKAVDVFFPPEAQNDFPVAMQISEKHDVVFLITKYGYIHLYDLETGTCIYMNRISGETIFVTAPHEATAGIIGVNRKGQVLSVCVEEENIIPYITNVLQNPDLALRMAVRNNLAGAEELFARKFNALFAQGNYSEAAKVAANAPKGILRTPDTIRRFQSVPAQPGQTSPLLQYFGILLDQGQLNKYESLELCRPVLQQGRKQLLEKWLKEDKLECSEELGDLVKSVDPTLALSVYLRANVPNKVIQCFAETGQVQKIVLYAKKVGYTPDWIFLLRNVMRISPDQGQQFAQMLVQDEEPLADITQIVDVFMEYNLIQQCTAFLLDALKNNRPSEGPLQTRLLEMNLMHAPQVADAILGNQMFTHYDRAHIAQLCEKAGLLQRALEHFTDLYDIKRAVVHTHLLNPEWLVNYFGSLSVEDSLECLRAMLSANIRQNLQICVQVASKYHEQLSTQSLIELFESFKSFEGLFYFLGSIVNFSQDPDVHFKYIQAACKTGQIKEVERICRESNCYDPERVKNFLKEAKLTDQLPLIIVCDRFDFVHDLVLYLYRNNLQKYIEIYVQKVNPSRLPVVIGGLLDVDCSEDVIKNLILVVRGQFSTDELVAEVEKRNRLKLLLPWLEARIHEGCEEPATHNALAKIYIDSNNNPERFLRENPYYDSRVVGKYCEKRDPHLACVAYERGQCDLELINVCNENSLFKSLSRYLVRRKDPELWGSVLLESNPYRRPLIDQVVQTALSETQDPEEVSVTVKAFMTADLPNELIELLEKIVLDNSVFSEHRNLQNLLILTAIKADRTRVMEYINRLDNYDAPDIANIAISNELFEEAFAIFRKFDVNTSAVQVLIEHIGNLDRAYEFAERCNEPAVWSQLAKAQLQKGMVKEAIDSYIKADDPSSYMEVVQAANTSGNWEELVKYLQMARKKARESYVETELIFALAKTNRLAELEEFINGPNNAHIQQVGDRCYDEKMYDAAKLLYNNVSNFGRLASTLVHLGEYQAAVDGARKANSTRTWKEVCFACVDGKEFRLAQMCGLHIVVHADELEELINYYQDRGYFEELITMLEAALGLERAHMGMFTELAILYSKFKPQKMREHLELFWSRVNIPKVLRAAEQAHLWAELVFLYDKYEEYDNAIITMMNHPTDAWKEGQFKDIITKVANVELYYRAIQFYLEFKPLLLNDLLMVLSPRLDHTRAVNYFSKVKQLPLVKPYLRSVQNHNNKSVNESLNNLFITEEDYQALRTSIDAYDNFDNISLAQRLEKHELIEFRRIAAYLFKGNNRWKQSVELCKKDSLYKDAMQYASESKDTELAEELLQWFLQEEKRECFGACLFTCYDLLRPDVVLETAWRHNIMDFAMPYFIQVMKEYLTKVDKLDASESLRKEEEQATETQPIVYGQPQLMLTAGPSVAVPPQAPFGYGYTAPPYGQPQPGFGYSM
UniProt Q9Y259: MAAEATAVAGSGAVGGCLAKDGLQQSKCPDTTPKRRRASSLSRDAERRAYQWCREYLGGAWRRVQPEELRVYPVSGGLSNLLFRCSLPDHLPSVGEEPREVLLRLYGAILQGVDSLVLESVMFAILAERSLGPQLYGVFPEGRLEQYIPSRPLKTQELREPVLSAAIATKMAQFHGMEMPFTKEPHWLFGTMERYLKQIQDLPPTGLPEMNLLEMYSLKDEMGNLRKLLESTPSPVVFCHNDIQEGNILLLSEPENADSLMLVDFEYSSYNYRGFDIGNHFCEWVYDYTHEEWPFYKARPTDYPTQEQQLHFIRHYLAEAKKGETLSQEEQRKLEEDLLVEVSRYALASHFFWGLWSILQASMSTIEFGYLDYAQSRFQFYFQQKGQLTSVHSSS
UniProt Q9NX63: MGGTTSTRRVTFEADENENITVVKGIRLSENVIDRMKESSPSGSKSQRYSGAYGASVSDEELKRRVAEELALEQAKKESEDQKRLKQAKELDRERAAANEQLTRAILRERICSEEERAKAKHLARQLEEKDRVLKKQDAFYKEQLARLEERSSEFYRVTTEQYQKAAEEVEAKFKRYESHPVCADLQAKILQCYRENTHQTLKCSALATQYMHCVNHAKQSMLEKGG
UniProt Q6FI81: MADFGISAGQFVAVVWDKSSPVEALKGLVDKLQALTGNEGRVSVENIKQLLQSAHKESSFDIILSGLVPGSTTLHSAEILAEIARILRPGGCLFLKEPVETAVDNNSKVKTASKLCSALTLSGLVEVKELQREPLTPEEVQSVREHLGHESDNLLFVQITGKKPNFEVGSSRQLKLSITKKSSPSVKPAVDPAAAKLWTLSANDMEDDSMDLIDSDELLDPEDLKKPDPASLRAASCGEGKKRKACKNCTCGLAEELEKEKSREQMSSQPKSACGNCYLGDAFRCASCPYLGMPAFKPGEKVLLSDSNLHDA
UniProt P0C7P0: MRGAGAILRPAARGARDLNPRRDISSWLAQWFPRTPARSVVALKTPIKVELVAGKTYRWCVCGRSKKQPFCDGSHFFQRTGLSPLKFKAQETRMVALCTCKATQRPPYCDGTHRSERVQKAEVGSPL
UniProt Q96EP1: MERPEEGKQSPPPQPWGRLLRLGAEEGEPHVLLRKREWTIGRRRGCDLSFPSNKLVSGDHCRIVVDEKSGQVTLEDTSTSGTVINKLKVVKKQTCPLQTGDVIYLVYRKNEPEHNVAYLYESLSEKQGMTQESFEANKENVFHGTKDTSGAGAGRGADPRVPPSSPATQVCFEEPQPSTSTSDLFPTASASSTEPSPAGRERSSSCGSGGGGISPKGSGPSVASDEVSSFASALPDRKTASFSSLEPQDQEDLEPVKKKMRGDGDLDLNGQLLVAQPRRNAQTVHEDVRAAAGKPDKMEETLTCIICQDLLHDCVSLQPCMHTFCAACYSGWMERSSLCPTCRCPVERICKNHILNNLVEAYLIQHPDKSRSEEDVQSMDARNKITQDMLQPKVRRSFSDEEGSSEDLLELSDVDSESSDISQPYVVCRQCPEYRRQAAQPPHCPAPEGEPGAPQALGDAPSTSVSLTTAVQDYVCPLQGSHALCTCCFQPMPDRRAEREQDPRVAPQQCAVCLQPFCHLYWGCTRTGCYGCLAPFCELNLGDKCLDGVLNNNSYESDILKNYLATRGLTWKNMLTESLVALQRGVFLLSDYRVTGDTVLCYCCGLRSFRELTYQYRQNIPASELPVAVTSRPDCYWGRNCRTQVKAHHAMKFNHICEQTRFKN
UniProt Q14008: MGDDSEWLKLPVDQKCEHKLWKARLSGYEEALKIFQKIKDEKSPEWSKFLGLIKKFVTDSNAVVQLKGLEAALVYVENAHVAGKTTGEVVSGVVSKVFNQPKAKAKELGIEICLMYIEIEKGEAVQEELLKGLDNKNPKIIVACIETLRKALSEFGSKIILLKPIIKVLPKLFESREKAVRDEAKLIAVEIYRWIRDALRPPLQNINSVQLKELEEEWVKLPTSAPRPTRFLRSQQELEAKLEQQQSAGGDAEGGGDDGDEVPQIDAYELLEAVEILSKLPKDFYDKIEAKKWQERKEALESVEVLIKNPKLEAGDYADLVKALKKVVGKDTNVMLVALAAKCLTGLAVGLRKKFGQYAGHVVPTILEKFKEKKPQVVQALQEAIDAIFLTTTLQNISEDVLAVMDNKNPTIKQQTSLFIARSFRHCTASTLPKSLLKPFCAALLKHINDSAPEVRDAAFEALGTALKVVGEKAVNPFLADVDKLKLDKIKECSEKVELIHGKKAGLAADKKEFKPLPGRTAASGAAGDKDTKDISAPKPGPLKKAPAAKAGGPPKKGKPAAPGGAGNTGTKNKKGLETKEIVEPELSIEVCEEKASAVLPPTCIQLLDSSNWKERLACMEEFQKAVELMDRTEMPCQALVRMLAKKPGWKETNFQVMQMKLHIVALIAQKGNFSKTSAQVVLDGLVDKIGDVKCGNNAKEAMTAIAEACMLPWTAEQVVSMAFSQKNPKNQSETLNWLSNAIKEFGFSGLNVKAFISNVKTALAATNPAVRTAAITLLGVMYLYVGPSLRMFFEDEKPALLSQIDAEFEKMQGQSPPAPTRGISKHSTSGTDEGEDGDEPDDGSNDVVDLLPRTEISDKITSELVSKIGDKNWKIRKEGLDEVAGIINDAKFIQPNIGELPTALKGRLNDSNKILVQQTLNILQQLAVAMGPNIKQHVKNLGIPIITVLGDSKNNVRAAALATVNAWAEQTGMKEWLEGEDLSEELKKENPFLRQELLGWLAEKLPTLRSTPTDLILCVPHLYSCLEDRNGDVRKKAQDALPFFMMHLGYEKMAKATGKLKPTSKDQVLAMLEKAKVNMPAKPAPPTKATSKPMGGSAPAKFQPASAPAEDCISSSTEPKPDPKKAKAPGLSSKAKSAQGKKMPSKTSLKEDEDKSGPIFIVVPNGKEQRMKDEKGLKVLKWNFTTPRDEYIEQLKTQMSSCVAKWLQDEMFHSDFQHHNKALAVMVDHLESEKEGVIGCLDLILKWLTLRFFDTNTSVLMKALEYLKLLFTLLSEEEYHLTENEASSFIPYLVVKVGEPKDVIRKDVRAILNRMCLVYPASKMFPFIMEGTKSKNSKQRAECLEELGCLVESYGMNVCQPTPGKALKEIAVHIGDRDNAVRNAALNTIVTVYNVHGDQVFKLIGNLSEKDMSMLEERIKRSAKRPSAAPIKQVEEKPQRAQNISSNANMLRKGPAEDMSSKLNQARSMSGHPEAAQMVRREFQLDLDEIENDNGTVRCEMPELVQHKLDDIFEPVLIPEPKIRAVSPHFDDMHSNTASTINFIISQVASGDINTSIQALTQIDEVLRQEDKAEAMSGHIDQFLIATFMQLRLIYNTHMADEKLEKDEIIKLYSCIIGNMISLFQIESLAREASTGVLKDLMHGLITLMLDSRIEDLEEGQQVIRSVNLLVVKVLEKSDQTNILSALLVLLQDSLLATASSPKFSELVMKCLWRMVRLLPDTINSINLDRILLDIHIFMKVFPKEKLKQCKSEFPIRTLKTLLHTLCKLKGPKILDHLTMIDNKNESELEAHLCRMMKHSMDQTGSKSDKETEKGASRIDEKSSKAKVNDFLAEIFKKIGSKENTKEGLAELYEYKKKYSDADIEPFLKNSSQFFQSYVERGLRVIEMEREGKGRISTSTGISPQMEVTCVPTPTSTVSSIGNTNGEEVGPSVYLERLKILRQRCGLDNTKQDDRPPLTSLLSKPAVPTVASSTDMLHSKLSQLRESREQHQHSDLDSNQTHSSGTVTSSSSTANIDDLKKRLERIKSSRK
UniProt Q9UFW8: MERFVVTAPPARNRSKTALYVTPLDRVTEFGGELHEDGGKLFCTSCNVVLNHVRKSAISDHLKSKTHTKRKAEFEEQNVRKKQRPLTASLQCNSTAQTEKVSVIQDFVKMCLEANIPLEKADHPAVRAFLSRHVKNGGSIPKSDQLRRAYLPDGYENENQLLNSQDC

Compound: CC1Cc2ccccc2N1C(=O)C1CCCN(C1)C(=O)CCl (mixture of isomers) [TRIM25 ligand 11 (diastereomer mixture)]
Test: probe-labelled cysteine peptide fold change vs DMSO (competition) (log2 fold change); higher = less target engagement (more negative = stronger competition)
Conditions: THP-1, incubation time: 4 h
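Also: competitive chemoproteomic profiling in live THP-1 cells with an iodoacetamide desthiobiotin (IA-DTB) probe, comparing probe-labelled peptide intensities in compound-treated cells against DMSO-treated controls.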

Row | Target | probe-labelled cysteine peptide fold change (10 µM) | probe-labelled cysteine peptide fold change (50 µM)
1 | CFAP298_P57076_45_LCSEMEELAEHGIFLPPNMQGLTDDQIEELK (UniProt P57076) | 0.113 | -0.478
2 | CHCHD5_Q9BSY4_44_MSIAQCTSSHPIIR (UniProt Q9BSY4) | 0.028 | -0.2
3 | CHI3L1_P36222_300_EAGTLAYYEICDFLR (UniProt P36222) | 0.0418 | 0.202
4 | CIC_Q96RK0_1506_VCLQLK (UniProt Q96RK0) | -0.246 | -0.186
5 | CIAO1_O76071_97_NQDDFECVTTLEGHENEVK (UniProt O76071) | 0.202 | 0.0175
6 | CLIC4_Q9Y696_35_AGSDGESIGNCPFSQR (UniProt Q9Y696) | -0.118 | 0.11
7 | CIP2A_Q8TCG1_472_VADSELCK (UniProt Q8TCG1) | 0.133 | 0.168
8 | CHST13_Q8NET6_81_DLLNSACSR (UniProt Q8NET6) | 0.0402 | -0.0104
9 | CLTC_Q00610_824_LPVVIGGLLDVDCSEDVIK (UniProt Q00610) | -0.0769 | 0.0896
10 | CIAO2B_Q9Y3D0_158_VAAALENTHLLEVVNQCLSAR (UniProt Q9Y3D0) | -0.226 | -0.22
11 | CHAF1B_Q13112_6_VITCEIAWHNK (UniProt Q13112) | 0.0543 | 0.02
12 | CLEC16A_Q2KHT3_588_DVHLACLEGAREESVHLVR (UniProt Q2KHT3) | -0.164 | -0.105
13 | CHKB_Q9Y259_85_CSLPDHLPSVGEEPREVLLR (UniProt Q9Y259) | -0.301 | -0.0104
14 | CHD6_Q8TD26_975_FCEEDIDQILQR (UniProt Q8TD26) | 0.16 | 0.102
15 | CLTC_Q00610_753_ESNCYDPER (UniProt Q00610) | 0.0159 | -0.0731
16 | CHKB_Q9Y259_17_AAEATAVAGSGAVGGCLAK (UniProt Q9Y259) | -0.00739 | -0.415
17 | CHCHD3_Q9NX63_183_YESHPVCADLQAK (UniProt Q9NX63) | 0.143 | -0.0141
18 | CIAPIN1_Q6FI81_237_AASCGEGK (UniProt Q6FI81) | -0.137 | -0.228

Shown with tabs: entries from further up.
Row	Target	probe-labelled cysteine peptide fold change (10 µM)	probe-labelled cysteine peptide fold change (50 µM)
6	CLIC4_Q9Y696_35_AGSDGESIGNCPFSQR (UniProt Q9Y696)	-0.118	0.11
7	CIP2A_Q8TCG1_472_VADSELCK (UniProt Q8TCG1)	0.133	0.168

(further entries)

Row | Target | probe-labelled cysteine peptide fold change (10 µM) | probe-labelled cysteine peptide fold change (50 µM)
19 | CHD1_O14646_1176_LGELVHNGCIK (UniProt O14646) | -0.0564 | -0.0746
20 | CISD3_P0C7P0_98_MVALCTCK (UniProt P0C7P0) | 0.0723 | -0.00501
21 | CHCHD3_Q9NX63_204+214_CSALATQYMHCVNHAK (UniProt Q9NX63) | -0.0243 | 0.119
22 | CHFR_Q96EP1_95_KQTCPLQTGDVIYLVYR (UniProt Q96EP1) | -0.0245 | -0.0677
23 | CHST11_Q9NPF2_89_RDQVTDTCR (UniProt Q9NPF2) | -0.0293 | -0.0834
24 | CES1_P23141_285_TTTSAVMVHCLR (UniProt P23141) | 0.0835 | 0.0709
25 | CIT_O14578_1392_CLECQVMCHPK (UniProt O14578) | -0.0102 | 0.126
26 | CFAP20_Q9Y6A4_61_RITDNDIQSLVLEIEGTNVSTTYITCPADPKK (UniProt Q9Y6A4) | -0.0841 | -0.0161
27 | CIAPIN1_Q6FI81_251_NCTCGLAEELEK (UniProt Q6FI81) | -0.0756 | -0.268
28 | CLTCL1_P53675_459_LECSEELGDLVK (UniProt P53675) | 0.213 | 0.12
29 | CKAP5_Q14008_1500_CEMPELVQHK (UniProt Q14008) | 0.0192 | -0.166
30 | CHCHD7_Q9BUK0_16_LRDPDINPCLSESDASTR (UniProt Q9BUK0) | -0.0672 | -0.133
31 | CLASP1_Q7Z460_864_QTEDVAEVLNHCASSNWSER (UniProt Q7Z460) | 0.0946 | 0.379
32 | CKAP5_Q14008_592_EIVEPELSIEVCEEK (UniProt Q14008) | 0.00603 | -0.152
33 | CIAO1_O76071_19_CWFLAWNPAGTLLASCGGDRR (UniProt O76071) | -0.246 | -0.477
34 | CLTC_Q00610_926_GQCDLELINVCNENSLFK (UniProt Q00610) | -0.0753 | -0.209
35 | CHCHD3_Q9NX63_112_ICSEEER (UniProt Q9NX63) | -0.357 | -0.344
36 | CGGBP1_Q9UFW8_43+46_LFCTSCNVVLNHVR (UniProt Q9UFW8) | 0.00061 | 0.227
